Test results as given in PubChem BioAssay AID1259415 (National Center for Advancing Translational Sciences (NCATS), 2018).
About 18,000 (4.4%) of roughly 410,000 compounds were called active. The inconclusive results got no clear call from the source; some entries with a clear call stand among them for comparison. Cut-off read from the data, not from the text of the source: active = activity change below about -60%; inconclusive = no clear call, values can overlap the other calls; inactive = above about -39%.

test: qHTS Assay for inhibitors of the human cytomegalovirus (HCMV); conditions: HFF cells, HCMV-luciferase reporter, 72 h; at 57.5 µM; hits give low values
In short: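 Two compound doses tested in HFFs infected with HCMV-luciferase, MOI 1 PFU/cell, 72 h at 37C. Lysate luminescence read with OneGlo; data normalized against buffer-only and 10uM Salinomycin inhibitor controls.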
% is set by controls: 0 for no effect and ±100 for the full control effect.

Compound | activity change, negative = inhibition
Cc1ccc2nc3[nH]c(=O)[nH]c(=O)c3c(N)c2c1 | inactive: 38.1%
O=C(N/N=C/c1ccc(O)cc1)/C(=C/c1ccccc1)CCO | inactive: 10.9%
O=C(c1ccc(=O)[nH]c1)N(Cc1cccs1)C1(C(=O)NC2CCCC2)CCCCC1 | inconclusive: -48.1%
CCOc1ccc2nc(CN3CCN(Cc4ccsc4)C(CCO)C3)ccc2c1 (stereo not given) | inconclusive: -40.4%
CCOc1ccc(C(=O)Nc2cnn(Cc3ccc(Cl)c(Cl)c3)c2)cc1 | active: -70%
COc1ccc(C(CNC(=O)c2cc3c(s2)CCC(C)C3)N2CCOCC2)cc1 (stereo not given) | inconclusive: -47.9%
CCOC(=O)c1ccc(NC(=O)N2CCc3ccccc3C2)cc1 | inconclusive: -59%
CC(C)C[C@H](CO)N(Cc1ccccc1)S(=O)(=O)N(Cc1ccccc1)[C@@H](CO)CC(C)C | inconclusive: -55.1%
O=c1cc(-c2ccncc2)oc2ccccc12 | inconclusive: -49.8%
Cc1onc(-c2ccccc2Cl)c1C(=O)OCC(=O)c1ccccc1 | inconclusive: -50.2%
COc1ccc(C(=O)/C=C/c2ccc(OC)cc2OC)c(O)c1 | inactive: 0%
CCN(CC)S(=O)(=O)c1ccc(NC(=O)c2c(-c3ccccc3)noc2C)cc1 | inconclusive: -46.7%
O=C(O)c1cccc(N/N=C/C2=C(Cl)c3cc(Cl)ccc3SC2)c1 | inactive: 58.9%
COc1cc2c(-c3ccc4[nH]ccc4c3)c(-c3ccc(C#N)cc3)oc(=O)c2cc1OC | inactive: -25.1%
COc1ccccc1OCc1nc(C#N)c(NCCCn2ccnc2)o1 | inconclusive: -44.4%
O=C(c1ccc([N+](=O)[O-])cc1)N1CCc2ccccc2C1 | active: -67.5%
CCOC(=O)c1cnc(SCc2nc(N)nc(Nc3ccc(F)cc3)n2)nc1N | active: -96.5%
CC(C)CNC(CC(=O)O)c1ccccc1 (stereo not given) | inconclusive: -50.3%
CCc1ccc(C(=O)c2cn(Cc3ccc(F)cc3)c3cc(OC)c(OC)cc3c2=O)cc1 | inconclusive: -58.6%
CN(C)CCCN(C(=O)c1ccc(S(=O)(=O)N2CCCCCC2)cc1)c1nc2ccc(Br)cc2s1 | active: -66.2%
CCOC(=O)c1sc2nc(CC(=O)OC)nc(NCCN3CCOCC3)c2c1C | inconclusive: -43.3%
Cc1ccc(-c2nc(C=Nc3cccc(C)c3)c(O)o2)cc1 | inconclusive: -46%
O=c1[nH]c(Cc2ccccc2)nc2ccccc12 | inactive: 50.6%
CCOc1ccc(-n2cnnn2)cc1S(=O)(=O)N1CCCCC1 | inconclusive: -47.5%
CN(C)CCNc1oc(-c2ccc(COc3ccc(Cl)cc3)o2)nc1C#N | inactive: -31.6%

Laid out differently: entries from further up.
Cc1ccc2nc3[nH]c(=O)[nH]c(=O)c3c(N)c2c1
  activity change, negative = inhibition: inactive: 38.1%
CCOc1ccc(-n2cnnn2)cc1S(=O)(=O)N1CCCCC1
  activity change, negative = inhibition: inconclusive: -47.5%
